This test has as its target p50 subunit of NF-κB (mouse (endogenous in BV2)) (UniProt P25799). Put plainly: co-IP; BV2 cell lysates, with or without OGD/R treatment; lysis buffer 50 mM Tris-HCl pH 7.5, 150 mM NaCl, 1% Nonidet P-40, 1 mM EDTA, 0.5% sodium deoxycholate; anti-Anxa2 or anti-p50 antibody overnight at 4 °C, protein A/G magnetic beads; immunoblotting. In general terms: A western blot detects proteins with antibodies after separation by electrophoresis.

Amino acid sequences for entries named in this document (tags omitted). Residues count along the entry.
UniProt P25799, residues 1-431: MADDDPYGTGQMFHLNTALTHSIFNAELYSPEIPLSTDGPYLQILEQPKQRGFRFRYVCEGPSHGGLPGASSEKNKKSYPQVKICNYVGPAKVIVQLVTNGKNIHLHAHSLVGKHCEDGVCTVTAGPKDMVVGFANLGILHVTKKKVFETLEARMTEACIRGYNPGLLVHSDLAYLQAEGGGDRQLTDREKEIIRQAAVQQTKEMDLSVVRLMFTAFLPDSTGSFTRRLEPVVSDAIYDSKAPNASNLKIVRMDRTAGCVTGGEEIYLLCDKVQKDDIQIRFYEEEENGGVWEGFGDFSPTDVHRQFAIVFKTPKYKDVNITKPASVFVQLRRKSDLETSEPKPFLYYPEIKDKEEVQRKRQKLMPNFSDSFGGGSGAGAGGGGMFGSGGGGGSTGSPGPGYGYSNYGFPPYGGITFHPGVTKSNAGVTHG
UniProt P07356: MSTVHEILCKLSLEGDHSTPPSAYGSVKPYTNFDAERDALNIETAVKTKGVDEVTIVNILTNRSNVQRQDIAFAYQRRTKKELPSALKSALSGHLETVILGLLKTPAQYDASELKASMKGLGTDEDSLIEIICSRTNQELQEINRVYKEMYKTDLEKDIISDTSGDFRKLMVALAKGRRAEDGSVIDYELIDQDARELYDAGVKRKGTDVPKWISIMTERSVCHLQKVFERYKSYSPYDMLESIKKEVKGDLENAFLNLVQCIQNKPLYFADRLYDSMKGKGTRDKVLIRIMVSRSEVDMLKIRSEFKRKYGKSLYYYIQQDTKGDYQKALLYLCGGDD

Results on one substance are retold here after PMC10879806.

No constants are given. Whether binding was seen depends on the method and setting. Binding seen in cells or lysates may run through a third protein. Some results given as binding are weak or reduced against the parent protein; the word gives no strength.

As to Annexin A2 (from UniProt P07356 1-339), the binding result is on record as “binds”.
